# Measurements taken from the supplement of paper PMC8728848.
# This is one part of the list.
# Columns and labels:
# Assay in all cases: glycan array binding signal (z-score within array); higher = stronger binding
# Details in all cases: glycan notation: IUPAC condensed, linker removed; mutation: D224N
# [1] = biological target: Gal(b1-4)GlcNAc(b1-3)Gal(b1-4)GlcNAc(b1-3)[Gal(b1-4)GlcNAc(b1-3)Gal(b1-4)GlcNAc(b1-6)]GalNAc
# Summary of the method: (§1)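 Columns mapping to the same glycan were averaged after glycan names were converted to IUPAC-condensed notation. The data come from 3228 arrays in the Consortium for Functional Glycomics database, limited to those with an available protein sequence. Binding is reported as a within-array Z-score averaged across arrays of one protein sequence and across linkers.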
# [2] = biological target: Gal(b1-4)GlcNAc(b1-3)Gal(b1-4)GlcNAc(b1-6)[Gal(b1-3)]GalNAc
# Summary of the method: as §1
# [3] = biological target: Gal(b1-4)GlcNAc(b1-3)Gal(b1-4)[Fuc(a1-3)]GlcNAc(b1-3)Gal(b1-4)[Fuc(a1-3)]GlcNAc
# Summary of the method: as §1
# [4] = biological target: Gal(b1-4)GlcNAc(b1-3)GalNAc
# Summary of the method: as §1
# [5] = biological target: Gal(b1-4)GlcNAc(b1-3)[Fuc(a1-3)GlcNAc(b1-6)]Gal(b1-4)Glc
# Summary of the method: as §1
# [6] = biological target: Gal(b1-4)GlcNAc(b1-3)[Gal(b1-4)GlcNAc(b1-6)]Gal(b1-4)GlcNAc
# Summary of the method: as §1
# [7] = biological target: Gal(b1-4)GlcNAc(b1-3)[GlcNAc(b1-6)]Gal(b1-4)GlcNAc
# Summary of the method: as §1
# [8] = biological target: Gal(b1-4)GlcNAc(b1-6)Gal(b1-4)GlcNAc
# Summary of the method: as §1
# [9] = biological target: Gal(b1-4)GlcNAc(b1-6)GalNAc
# Summary of the method: as §1
# [10] = biological target: Gal(b1-4)GlcNAc(b1-6)[Gal(b1-3)]GalNAc
# Summary of the method: as §1
# [11] = biological target: Gal(b1-4)GlcNAc(b1-6)[Gal(b1-4)GlcNAc(b1-3)]GalNAc
# Summary of the method: as §1
# Gal(b1-4)GlcNAc6P = biological target: Gal(b1-4)GlcNAc6P
# Summary of the method: as §1
# Gal(b1-6)Gal = biological target: Gal(b1-6)Gal
# Summary of the method: as §1
# Gal3S(b1-3)GalNAc = biological target: Gal3S(b1-3)GalNAc
# Summary of the method: as §1
# Gal3S(b1-3)GlcNAc = biological target: Gal3S(b1-3)GlcNAc
# Summary of the method: as §1
# [12] = biological target: Gal3S(b1-3)[Fuc(a1-4)]GlcNAc
# Summary of the method: as §1
# Gal3S(b1-4)Glc = biological target: Gal3S(b1-4)Glc
# Summary of the method: as §1
# Gal3S(b1-4)Glc6S = biological target: Gal3S(b1-4)Glc6S
# Summary of the method: as §1
# Gal3S(b1-4)GlcNAc = biological target: Gal3S(b1-4)GlcNAc
# Summary of the method: as §1
# [13] = biological target: Gal3S(b1-4)[Fuc(a1-3)]Glc6S
# Summary of the method: as §1
# [14] = biological target: Gal3S(b1-4)[Fuc(a1-3)]GlcNAc
# Summary of the method: as §1
# [15] = biological target: Gal3S(b1-4)[Fuc(a1-3)]GlcNAc6S
# Summary of the method: as §1
# Gal3S4S(b1-4)GlcNAc = biological target: Gal3S4S(b1-4)GlcNAc
# Summary of the method: as §1
# Gal3S6S(b1-4)GlcNAc = biological target: Gal3S6S(b1-4)GlcNAc
# Summary of the method: as §1
# Gal3S6S(b1-4)GlcNAc6S = biological target: Gal3S6S(b1-4)GlcNAc6S
# Summary of the method: as §1
# Gal4S(b1-4)GlcNAc = biological target: Gal4S(b1-4)GlcNAc
# Summary of the method: as §1
# Gal4S6S(b1-4)GlcNAc = biological target: Gal4S6S(b1-4)GlcNAc
# Summary of the method: as §1
# Gal6P(b1-4)GlcNAc = biological target: Gal6P(b1-4)GlcNAc
# Summary of the method: as §1
# Gal6S(b1-3)GlcNAc = biological target: Gal6S(b1-3)GlcNAc
# Summary of the method: as §1
# Gal6S(b1-3)GlcNAc6S = biological target: Gal6S(b1-3)GlcNAc6S
# Summary of the method: as §1
# Gal6S(b1-4)Glc = biological target: Gal6S(b1-4)Glc
# Summary of the method: as §1
# Gal6S(b1-4)Glc6S = biological target: Gal6S(b1-4)Glc6S
# Summary of the method: as §1
# Gal6S(b1-4)GlcNAc = biological target: Gal6S(b1-4)GlcNAc
# Summary of the method: as §1
# Gal6S(b1-4)GlcNAc6S = biological target: Gal6S(b1-4)GlcNAc6S
# Summary of the method: as §1
# GalNAc(a1-3)Gal = biological target: GalNAc(a1-3)Gal
# Summary of the method: as §1
# GalNAc(a1-3)GalNAc = biological target: GalNAc(a1-3)GalNAc
# Summary of the method: as §1
# [16] = biological target: GalNAc(a1-3)GalNAc(b1-3)Gal(a1-4)Gal(b1-4)Glc
# Summary of the method: as §1
# [17] = biological target: GalNAc(a1-3)GalNAc(b1-3)Gal(a1-4)Gal(b1-4)GlcNAc
# Summary of the method: as §1
# GalNAc(b1-3)Gal = biological target: GalNAc(b1-3)Gal
# Summary of the method: as §1
# [18] = biological target: GalNAc(b1-3)Gal(a1-4)Gal(b1-4)GlcNAc
# Summary of the method: as §1
# [19] = biological target: GalNAc(b1-3)Gal(a1-4)Gal(b1-4)GlcNAc(b1-3)Gal(b1-4)Glc
# Summary of the method: as §1
# [20] = biological target: GalNAc(b1-3)Gal(a1-6)Gal(b1-4)Glc
# Summary of the method: as §1
# GalNAc(b1-3)GalNAc = biological target: GalNAc(b1-3)GalNAc
# Summary of the method: as §1
# GalNAc(b1-3)GlcNAc = biological target: GalNAc(b1-3)GlcNAc
# Summary of the method: as §1
# GalNAc(b1-4)Gal(b1-4)Glc = biological target: GalNAc(b1-4)Gal(b1-4)Glc
# Summary of the method: as §1
binder,measurement,setting,value
a L Fucosidase (Thermotoga maritima) (protein) MASMKPRYKPDWESLREHTVPKWFDKAKFGIFIHWGIYSVPGWATPTGELGKVPMDAWFFQNPYAEWYENSLRIKESPTWEYHVKTYGENFEYEKFADLFTAEKWDPQEWADLFKKAGAKYVIPTTKHHDGFCLWGTKYTDFNSVKRGPKRDLVGDLAKAVREAGLRFGVYYSGGLDWRFTTEPIRYPEDLSYIRPNTYEYADYAYKQVMELVDLYLPDVLWNNMGWPEKGKEDLKYLFAYYYNKHPEGSVNDRWGVPHWDFKTAEYHVNYPGDLPGYKWEFTRGIGLSFGYNRNEGPEHMLSVEQLVYTLVDVVSKGGNLLLNVGPKGDGTIPDLQKERLLGLGEWLRKYGDAIYGTSVWERCCAKTEDGTEIRFTRKCNRIFVIFLGIPTGEKIVIEDLNLSAGTVRHFLTGERLSFKNVGKNLEITVPKKLLETDSITLVLEAVEE,glycan array binding signal (z-score),[1],0.254
same,glycan array binding signal (z-score),[2],1.36
same,glycan array binding signal (z-score),[3],-0.594
same,glycan array binding signal (z-score),[4],-0.592
same,glycan array binding signal (z-score),[5],0.101
same,glycan array binding signal (z-score),[6],-0.337
same,glycan array binding signal (z-score),[7],0.333
same,glycan array binding signal (z-score),[8],-0.205
same,glycan array binding signal (z-score),[9],0.096
same,glycan array binding signal (z-score),[10],-0.395
same,glycan array binding signal (z-score),[11],0.13
same,glycan array binding signal (z-score),Gal(b1-4)GlcNAc6P,1.37
same,glycan array binding signal (z-score),Gal(b1-6)Gal,-0.141
same,glycan array binding signal (z-score),Gal3S(b1-3)GalNAc,0.819
same,glycan array binding signal (z-score),Gal3S(b1-3)GlcNAc,-0.043
same,glycan array binding signal (z-score),[12],0.534
same,glycan array binding signal (z-score),Gal3S(b1-4)Glc,-0.352
same,glycan array binding signal (z-score),Gal3S(b1-4)Glc6S,-0.25
same,glycan array binding signal (z-score),Gal3S(b1-4)GlcNAc,0.275
same,glycan array binding signal (z-score),[13],0.443
same,glycan array binding signal (z-score),[14],0.994
same,glycan array binding signal (z-score),[15],-0.238
same,glycan array binding signal (z-score),Gal3S4S(b1-4)GlcNAc,-1.04
same,glycan array binding signal (z-score),Gal3S6S(b1-4)GlcNAc,1.33
same,glycan array binding signal (z-score),Gal3S6S(b1-4)GlcNAc6S,0.962
same,glycan array binding signal (z-score),Gal4S(b1-4)GlcNAc,-0.611
same,glycan array binding signal (z-score),Gal4S6S(b1-4)GlcNAc,-0.705
same,glycan array binding signal (z-score),Gal6P(b1-4)GlcNAc,-0.647
same,glycan array binding signal (z-score),Gal6S(b1-3)GlcNAc,0.321
same,glycan array binding signal (z-score),Gal6S(b1-3)GlcNAc6S,-0.65
same,glycan array binding signal (z-score),Gal6S(b1-4)Glc,0.163
same,glycan array binding signal (z-score),Gal6S(b1-4)Glc6S,-0.426
same,glycan array binding signal (z-score),Gal6S(b1-4)GlcNAc,-0.483
same,glycan array binding signal (z-score),Gal6S(b1-4)GlcNAc6S,-0.361
same,glycan array binding signal (z-score),GalNAc(a1-3)Gal,-0.313
same,glycan array binding signal (z-score),GalNAc(a1-3)GalNAc,-0.627
same,glycan array binding signal (z-score),[16],-0.326
same,glycan array binding signal (z-score),[17],-0.305
same,glycan array binding signal (z-score),GalNAc(b1-3)Gal,-0.477
same,glycan array binding signal (z-score),[18],-0.203
same,glycan array binding signal (z-score),[19],0.065
same,glycan array binding signal (z-score),[20],-1.36
same,glycan array binding signal (z-score),GalNAc(b1-3)GalNAc,0.032
same,glycan array binding signal (z-score),GalNAc(b1-3)GlcNAc,0.486
same,glycan array binding signal (z-score),GalNAc(b1-4)Gal(b1-4)Glc,0.47

# In a second layout: results already given.
binder	measurement	setting	value
a L Fucosidase (Thermotoga maritima) (protein) MASMKPRYKPDWESLREHTVPKWFDKAKFGIFIHWGIYSVPGWATPTGELGKVPMDAWFFQNPYAEWYENSLRIKESPTWEYHVKTYGENFEYEKFADLFTAEKWDPQEWADLFKKAGAKYVIPTTKHHDGFCLWGTKYTDFNSVKRGPKRDLVGDLAKAVREAGLRFGVYYSGGLDWRFTTEPIRYPEDLSYIRPNTYEYADYAYKQVMELVDLYLPDVLWNNMGWPEKGKEDLKYLFAYYYNKHPEGSVNDRWGVPHWDFKTAEYHVNYPGDLPGYKWEFTRGIGLSFGYNRNEGPEHMLSVEQLVYTLVDVVSKGGNLLLNVGPKGDGTIPDLQKERLLGLGEWLRKYGDAIYGTSVWERCCAKTEDGTEIRFTRKCNRIFVIFLGIPTGEKIVIEDLNLSAGTVRHFLTGERLSFKNVGKNLEITVPKKLLETDSITLVLEAVEE	glycan array binding signal (z-score)	[5]	0.101
same	glycan array binding signal (z-score)	[6]	-0.337
same	glycan array binding signal (z-score)	[7]	0.333
same	glycan array binding signal (z-score)	[8]	-0.205
same	glycan array binding signal (z-score)	[9]	0.096
same	glycan array binding signal (z-score)	[10]	-0.395
same	glycan array binding signal (z-score)	[11]	0.13
same	glycan array binding signal (z-score)	Gal(b1-4)GlcNAc6P	1.37
same	glycan array binding signal (z-score)	Gal(b1-6)Gal	-0.141
same	glycan array binding signal (z-score)	Gal3S(b1-3)GalNAc	0.819
same	glycan array binding signal (z-score)	Gal3S(b1-3)GlcNAc	-0.043
same	glycan array binding signal (z-score)	[12]	0.534
same	glycan array binding signal (z-score)	Gal3S(b1-4)Glc	-0.352
same	glycan array binding signal (z-score)	Gal3S(b1-4)Glc6S	-0.25
